Experimental data published in PubChem BioAssay AID493014 (National Center for Advancing Translational Sciences (NCATS), 2011).
This is one part of the list. The main result of the screen is listed elsewhere. These columns were measured beside it and carry no call. Most of these compounds were active or inconclusive in the main read-out, so they are no random draw. Words in brackets tell the shape of the fitted curve; partial curves, single points and poor fits give uncertain potencies.

Experiment: qHTS Assay to Find Inhibitors of Chronic Active B-Cell Receptor Signaling
Settings: ABC-DLBCL IkBa-CBG/CBR reporter, luminescence ratio (green luciferase fused to IkBa over red control in TMD8 lymphoma cells), 4 h
Summary of the method: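 Cell line TMD8 (human ABC DLBCL), stably expressing tet-inducible CBG68-IkBa fusion and CBR; IMDM/0.5% FBS; cpd up to 46 uM; dox induction, 4 h, 37C/5% CO2; dual luminescence; green/red ratio; MG132 control.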

[1] = measured here: CBR red luminescence, cell number
[2] = measured here: IkBa-CBG green luminescence

| Compound | AC50 [1] | AC50 [2] |
| --- | --- | --- |
| Cc1nonc1NC(=O)CSc1ccc(-c2ccccc2)nn1 | 15.8 µM [rising, partial curve, poor fit] |  |
| O=C(c1cccs1)N1N=C(c2ccccc2)CC1c1ccc(O)cc1 (stereo unspecified) | 20.6 µM [falling, single point] |  |
| Nc1nonc1-n1nnc(C(=O)N/N=C/c2ccc(OCc3ccc(F)cc3)cc2)c1COc1ccccc1 | 35.5 µM [rising, single point] |  |
| O=c1c2ccccc2[nH]c(=S)n1CCN1CCc2ccccc2C1 | 35.5 µM [falling, single point] |  |
| CCOc1ccccc1OCCCOc1ccc(C)cc1Br | 17.8 µM [rising, partial curve] |  |
| CC(C)(C)NC(=O)NC(=O)COC(=O)C1CC(=O)N(Cc2ccccc2)C1 (stereo unspecified) | 35.5 µM [falling, single point] |  |
| Cc1cc(NC(=O)c2c(F)c(F)c(F)c(F)c2F)no1 | 29.1 µM [falling, single point] |  |
| O=C(COc1ccc(Cl)cc1Cl)NNC(=S)NC(=O)c1ccco1 | 31.6 µM [rising, partial curve, poor fit] |  |
| CCCCc1ccc(Nc2nc(CCC)cc(=O)[nH]2)cc1 | 23.1 µM [rising, partial curve] |  |
| Cc1cc(C(C)(C)CC(C)(C)C)ccc1OCCOCC[N+](C)(C)Cc1ccccc1 | 20.6 µM [falling, single point] |  |
| CC(C)(C)NC(=O)C(c1ccco1)N(C(=O)Cn1nnc(-c2ccc(F)cc2)n1)c1ccccc1F (stereo unspecified) | 0.0517 µM [rising, full curve, poor fit] |  |
| O=C(Nc1ccc(S(=O)(=O)N2CCCCC2)cc1)c1ccc(F)cc1 | 35.5 µM [falling, partial curve, poor fit] |  |
| CCOC(=O)C1CCN(C(=O)c2ccc3c(=O)n4nc(Nc5cc(C)ccc5C)sc4nc3c2)CC1 | 35.5 µM [falling, single point] |  |
| COc1ccc2nc(C)cc(Nc3ccccc3O)c2c1 | 35.5 µM [falling, single point] | 1.41 µM [rising, full curve, poor fit] |
| COC(=O)c1ccccc1NC(=O)CSc1nnc(-c2cccnc2)o1 | 7.08 µM [falling, partial curve] |  |
| Cc1nn(Cc2c(F)c(F)c(F)c(F)c2F)c(C)c1NC(=O)c1ccc(COc2ccccc2Cl)o1 | 5.01 µM [falling, partial curve, poor fit] |  |
| O=C(NCc1ccco1)C(=O)c1cn(CC(=O)N2CCCCC2)c2ccccc12 | 15.8 µM [falling, single point] |  |
| CCCCN1C(=O)N(C)C2C1N(C)C(=O)N2CCCC (stereo unspecified) | 0.82 µM [rising, full curve, poor fit] | 10.3 µM [falling, partial curve, poor fit] |
| CCC[N+]1(CC#CCC(c2ccccc2)c2ccccc2)CCCCC1 | 3.16 µM [falling, partial curve] |  |
| O=C1c2ccc(-c3ccc4c(c3)C(=O)N(CCO)C4=O)cc2C(=O)N1CCO | 5.62 µM [rising, single point] |  |
| CCCCCC(=O)Nc1cccc(C2=NOC3(C2)C[C@H](C(N)=O)N(C(=O)COc2ccc(Cl)cc2)C3)c1 (stereo partly specified) | 22.4 µM [falling, single point] |  |

| Compound | AC50 [1] | AC50 [2] |
| --- | --- | --- |
| Cc1cccc(N=C2NC(=O)/C(=C/c3cccn3C)S2)c1C | 3.16 µM [falling, partial curve, poor fit] |  |
| CN(Cc1c(C(=O)N/N=C/c2cccc(O)c2)nnn1-c1nonc1N)c1ccccc1 | 35.5 µM [falling, partial curve, poor fit] | 15.8 µM [rising, partial curve, poor fit] |
| CCc1ccc(NCc2nc(-c3ccccc3)no2)cc1 | 2.31 µM [rising, full curve, poor fit] |  |
| Fc1ccc(NC(=S)Nc2ccccc2N2CCOCC2)cc1Cl | 35.5 µM [rising, single point] |  |
| CCCOC(=O)c1ccc(Oc2cn[nH]c2-c2ccc(OCC)cc2O)cc1 | 25.1 µM [falling, single point] |  |
| CCN(C(=O)CN1C(=O)S/C(=C\C=C\c2ccccc2)C1=O)C1CCS(=O)(=O)C1 (stereo unspecified) | 2 µM [falling, full curve, poor fit] |  |
| O=C(Nc1ccn(-c2ccccc2)n1)c1ccc(Cl)cc1 | 29.1 µM [falling, single point] |  |
| O=C(Nc1ccc(Cl)cn1)C1CCCN(c2ncnc3c2nc2n3CCCCC2)C1 (stereo unspecified) | 2.82 µM [rising, partial curve, poor fit] |  |
| CCC(c1nnnn1Cc1ccco1)N(CCc1ccccc1)Cc1cc2cc(C)ccc2[nH]c1=O (stereo unspecified) | 0.708 µM [falling, partial curve, poor fit] |  |
| CCCC(=O)Nc1ccc(Br)c(Cl)c1 | 16.4 µM [rising, partial curve, poor fit] |  |
| O=C(CS(=O)(=O)c1cn(CC(=O)N2CCOCC2)c2ccccc12)Nc1ccccc1 | 11.2 µM [falling, partial curve, poor fit] |  |
| Nc1ccc2oc3ccc(N)cc3c(=O)c2c1 | 29.1 µM [rising, single point] |  |
| COc1ccc(-c2nn(C)c(=O)c3ccccc23)cc1CNS(C)(=O)=O |  | 23.1 µM [falling, partial curve, poor fit] |
| CC(NCC1(N2CCOCC2)CCCCC1)C(=O)N1CCc2ccccc21 (stereo unspecified) | 1.46 µM [falling, partial curve, poor fit] |  |
| COc1cc(OC)cc(C(=O)Nc2ccc(N(C)C)c3ccccc23)c1 | 7.94 µM [rising, partial curve, poor fit] |  |
| COC(=O)c1nnn(-c2cccc(Cl)c2)c1C(=O)OC | 35.5 µM [falling, single point] |  |
| CCCS/C(N)=N/N=C/c1ccccc1O | 13 µM [falling, partial curve] |  |
| CCCN=C(C)c1c(-c2ccccc2)[nH]n(-c2nc3ccccc3s2)c1=O | 6.51 µM [rising, partial curve, poor fit] |  |
| COc1ccc2[nH]c(C(=O)Nc3cccc(C)n3)cc2c1 | 8.91 µM [falling, partial curve, poor fit] |  |
| CC1(C)Cc2c(cnn2-c2cccc(F)c2)C(NC(=O)c2csnn2)C1 (stereo unspecified) | 3.98 µM [falling, single point] |  |
| O=C(NCC1CC1)Nc1ccc(Cl)cc1 | 0.794 µM [rising, full curve, poor fit] |  |

| Compound | AC50 [1] | AC50 [2] |
| --- | --- | --- |
| COc1ccccc1/C=C(\C#N)C(=O)c1cccn1C | 17.8 µM [falling, single point] |  |
| Brc1ccc(/C=N/Nc2ccc3ccccc3n2)cc1 | 15.8 µM [falling, partial curve] |  |
| CCC(C)(C)n1nnnc1C(c1cc(OC)c(OC)c(OC)c1)N1CCN(c2ccccc2)CC1 (stereo unspecified) | 0.13 µM [rising, full curve, poor fit] |  |
| COc1ccccc1NC(=O)/C=C/C(=O)O | 35.5 µM [falling, single point] |  |
| O=C(Nc1ccc(Cl)cc1)c1cc(-c2cccs2)on1 | 6.31 µM [falling, full curve] |  |
| O=C(CCC(=O)N1CCOc2ccccc21)Nc1ccc(F)cc1F | 7.08 µM [falling, full curve, poor fit] |  |
| Cc1cccc(N2CCN(C(=O)CCS(=O)(=O)c3ccc(Br)cc3)CC2C)c1 (stereo unspecified) | 6.31 µM [falling, single point] |  |
| Cn1cc(Br)c(C(=O)NNC(=O)c2cccc(Br)c2)n1 | 11.2 µM [falling, partial curve, poor fit] |  |
| O=C(O)c1ccccc1Nc1ccc([N+](=O)[O-])c2nonc12 | 22.4 µM [rising, partial curve, poor fit] |  |
| Cc1cccc(NC(=O)NC(=O)c2ccccc2)n1 | 1.78 µM [falling, full curve, poor fit] |  |
| Fc1cc(Br)ccc1NC(=S)Nc1cccnc1 | 35.5 µM [rising, single point] |  |
| C=CCSc1nc2ccccc2n1C(=O)/C=C/c1ccc(OC)c(OC)c1 | 0.562 µM [falling, full curve, poor fit] |  |
| O=C(NCCCCNC(=O)c1ccccn1)c1ccccn1 | 5.62 µM [falling, single point] |  |
| COc1cccc(COC(=O)c2cc(S(=O)(=O)N3CCCCC3)ccc2N2CCOCC2)c1OC | 0.651 µM [rising, full curve, poor fit] |  |
| Cc1ccnc(N2CCN(C(=O)CSc3nc4ccccc4nc3N3CCCCC3)CC2)c1 | 0.731 µM [rising, partial curve, poor fit] |  |
| Cc1cc(OC(=O)c2c(C)cc(O)cc2O)cc(O)c1C(=O)O | 20.6 µM [rising, partial curve] |  |
| O=C(/C=C/c1ccccc1)NC(=O)c1ccccc1O | 0.251 µM [falling, full curve] |  |
| O=c1c2ccccc2nc(COc2ccccc2)n1/N=C/c1cn[nH]c1-c1ccccc1 | 20.6 µM [falling, single point] |  |
| CCOC(=O)c1c(C)c(C(=O)N(C)C2CCCCC2)c(C)n1C | 4.47 µM [rising, single point] |  |
| CC1CCCC(C)N1C(=O)CSc1nnc(COc2cccc3cccnc23)o1 (stereo unspecified) |  | 35.5 µM [rising, partial curve, poor fit] |
| CCSc1nc(CC)c2c(c1C#N)CCCC2 | 14.6 µM [rising, partial curve] |  |

Reprinted at random: 4 compounds from above.

| Compound | AC50 [1] | AC50 [2] |
| --- | --- | --- |
| O=C(CCC(=O)N1CCOc2ccccc21)Nc1ccc(F)cc1F | 7.08 µM [falling, full curve, poor fit] |  |
| COc1cccc(COC(=O)c2cc(S(=O)(=O)N3CCCCC3)ccc2N2CCOCC2)c1OC | 0.651 µM [rising, full curve, poor fit] |  |
| Cc1cccc(NC(=O)NC(=O)c2ccccc2)n1 | 1.78 µM [falling, full curve, poor fit] |  |
| Cc1cccc(N2CCN(C(=O)CCS(=O)(=O)c3ccc(Br)cc3)CC2C)c1 (stereo unspecified) | 6.31 µM [falling, single point] |  |
